Test results as given in article PMC9728307 (Journal of Microbiology and Biotechnology, 2020).
Counter-ions that a name gives are not always drawn. Like-named read-outs stand apart in the source and are kept apart here.

Tested on: SARS-CoV-2
Test: microbe, parasite or virus in culture
Format: cell-based
Conditions: for Selectivity Index (SI): CC50/IC50; for IC50: Severe acute respiratory syndrome coronavirus 2, Vero, 24 h, read-out: IC50 antiviral activity

SMILES	Selectivity Index (SI) (compounds from secondary screening)	IC50 [µM]	Selectivity Index (SI) (compounds from primary screening)	IC50 (Vero cells, MOI 2, 24 h post-infection, compounds from primary screening, 100 μM to 0.16 μM) [µM]
CN(C)C(=O)C(CCN1CCC(O)(c2ccc(Cl)cc2)CC1)(c1ccccc1)c1ccccc1 [Loperamide hydrochloride]	>3.4	14.8	–	–
Fc1ccc(C(c2ccc(F)cc2)N2CCN(C/C=C/c3ccccc3)CC2)cc1 [Flunarizine]	–	–	>18.9	5.3
